Results: the supplement of paper PMC6078165
Values are relative to the signal before dosing, not to a vehicle control; the signal also falls without drug.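 Fibroblast labels denote human fibroblasts, mainly primary ones from uterus (C12385, HUF), lung (H6013), bone (Hs27A), adrenal (HADF) and skin (WS1), plus mammary HMF and breast cancer-associated Hs343T. Cancer cells are basal-like or mesenchymal-like triple-negative breast cancer lines. A hit is a response shift exceeding 3x replicate standard deviation. The tissue of the other fibroblasts is not given here.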

Tested on: MDAMB468
Experiment: relative JC-1 red fluorescence (viability) vs pre-drug, coculture with fibroblast (fraction); higher = more viable cancer cells
Protocol: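 JC-1 labelled TNBC cells cocultured 1:1 (1,500 cells each) with CellTrace Violet stained primary or stromal fibroblasts in 384-well plates in FluoroBrite medium, treated with one of 42 anticancer drugs at 0.1, 1, 10 or 100 uM. JC-1 red fluorescence (mitochondrial integrity in cancer cells only) was read by plate reader every 8 h for 72 h. Values are normalised to each well's pre-drug value. The stock of one drug was tenfold lower, so its dose labels may be too high.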

CC[C@]1(O)C[C@H]2CN(CCc3c([nH]c4ccccc34)[C@@](C(=O)OC)(c3cc4c(cc3OC)N(C=O)[C@H]3[C@@](O)(C(=O)OC)[C@H](OC(C)=O)[C@]5(CC)C=CCN6CC[C@]43[C@@H]65)C2)C1 [Vincristine]
relative JC-1 red fluorescence
Details	8 h	16 h	24 h	32 h	40 h	48 h	56 h	64 h	72 h
0.1 µM, coculture fibroblast: C12385	0.8599	0.8769	0.9069	0.896	0.884	0.94	0.935	0.971	0.874
0.1 µM, coculture fibroblast: H6013	0.8627	0.874	0.851	0.8631	0.879	0.912	0.908	0.92	0.868
0.1 µM, coculture fibroblast: H6019	0.871	0.884	0.926	0.918	0.817	0.95	0.936	0.8965	0.79
0.1 µM, coculture fibroblast: H6076	0.952	0.954	0.915	0.729	0.9445	0.949	0.929	0.9231	0.9581
0.1 µM, coculture fibroblast: H6231	0.818	0.935	0.897	0.901	0.852	0.838	0.798	0.765	0.777
0.1 µM, coculture fibroblast: HADF	0.868	0.87	0.8419	0.836	0.8154	0.827	0.802	0.817	0.762
0.1 µM, coculture fibroblast: HCFa	0.848	0.825	0.779	0.764	0.723	0.716	0.679	0.64	0.593
0.1 µM, coculture fibroblast: HCPF	0.841	0.933	0.8816	0.893	0.831	0.795	0.734	0.722	0.713
0.1 µM, coculture fibroblast: HHSteC	0.9133	0.909	0.883	0.843	0.82	0.823	0.764	0.742	0.694
0.1 µM, coculture fibroblast: HMF	0.8733	0.969	0.944	0.936	0.866	0.852	0.814	0.814	0.821
0.1 µM, coculture fibroblast: HPFa	0.891	0.879	0.8567	0.808	0.77	0.765	0.706	0.7	0.642
0.1 µM, coculture fibroblast: HUF	0.903	0.851	0.835	0.78	0.757	0.757	0.731	0.739	0.745
0.1 µM, coculture fibroblast: Hs5	0.907	0.89	0.966	0.9565	0.905	0.885	0.866	0.843	0.878
0.1 µM, coculture fibroblast: Hs27A	0.8698	0.88346	0.8464	0.87514	0.8471	0.8674	0.8484	0.8502	0.7929
0.1 µM, coculture fibroblast: Hs343T	0.8915	0.812	0.9618	0.9479	0.883	0.8686	0.8167	0.80366	0.7844
0.1 µM, coculture fibroblast: WS1	0.881	0.833	0.84	0.831	0.822	0.846	0.851	0.874	0.897
1 µM, coculture fibroblast: C12385	0.9046	0.8823	0.8622	0.8031	0.751	0.733	0.701	0.673	0.657
1 µM, coculture fibroblast: H6013	0.89679	0.898	0.832	0.83	0.804	0.81	0.793	0.778	0.745
1 µM, coculture fibroblast: H6019	0.8752	0.841	0.826	0.779	0.773	0.774	0.749	0.737	0.73
1 µM, coculture fibroblast: H6076	0.9769	0.883	0.984	0.9764	0.9095	0.8829	0.832	0.804	0.853
1 µM, coculture fibroblast: H6231	0.84875	0.9897	0.9117	0.8649	0.819	0.795	0.748	0.746	0.741
1 µM, coculture fibroblast: HADF	0.898	0.881	0.83	0.824	0.781	0.774	0.741	0.727	0.692
1 µM, coculture fibroblast: HCFa	0.89143	0.858	0.8115	0.8041	0.733	0.734	0.685	0.654	0.602
1 µM, coculture fibroblast: HCPF	0.9067	0.863	0.938	0.943	0.881	0.855	0.792	0.772	0.761
1 µM, coculture fibroblast: HHSteC	0.945	0.951	0.897	0.895	0.873	0.882	0.832	0.802	0.752
1 µM, coculture fibroblast: HMF	0.872	0.845	0.9042	0.896	0.84	0.825	0.782	0.768	0.755
1 µM, coculture fibroblast: HPFa	0.929	0.929	0.885	0.845	0.813	0.796	0.738	0.729	0.658
1 µM, coculture fibroblast: HUF	0.916	0.846	0.793	0.734	0.7	0.682	0.643	0.632	0.614
1 µM, coculture fibroblast: Hs5	0.713	0.766	0.802	0.778	0.959	0.929	0.891	0.85	0.876
1 µM, coculture fibroblast: Hs27A	0.8829	0.83658	0.848	0.851	0.808	0.814	0.794	0.78	0.745
1 µM, coculture fibroblast: Hs343T	0.906	0.904	0.938	0.913	0.856	0.834	0.774	0.751	0.73
1 µM, coculture fibroblast: WS1	0.899	0.8453	0.804	0.761	0.744	0.715	0.701	0.688	0.69
